Results of single-concentration screens

The values are deposited in ChEMBL (CHEMBL3988442, “University of Dundee, Small-Polar-MMV Screening Library” (2021)).

Mtb cholesterol medium: 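Phenotypic screen: M. tuberculosis growth, cholesterol and DPPC medium, 4 days; the read-out is not stated. Tested at 50 µM. Direction is inferred from retests: higher values go with more growth inhibition. About 69,000 compounds were tested under these conditions; 0.54% (about 370) showed 50% or more at least once.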
Mtb glucose medium: 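Growth of Mycobacterium tuberculosis over 3 days (7H9 medium with glucose and tyloxapol); the read-out is not stated. Compounds at 50 µM. Higher reads as more growth inhibition (inferred: compounds with an IC50 in retests scored well above the rest). Size under these conditions: about 69,000 compounds, about 760 of them at 50% or above in at least one test.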

Each number is a percent effect as filed. How 0% and 100% were set is not recorded. Most values in the screen are low, and negative values occur. This is an unselected part of the compounds tested. Two or more numbers in one place are separate tests of the same structure; such repeats can differ widely.

compound,Mtb cholesterol medium,Mtb glucose medium
CCC1COCCN1C(=O)CNC(=O)c1ccoc1C (stereo not drawn),-8.878,8.066 and -18.49
Cn1cc(C(=O)N2CCOc3ccccc32)ccc1=O,-24.11 and 14.01,-26.05
O=C(c1cccnc1-n1cncn1)N1CCN(C2CCCC2)CC1,14.36,-9.463 and 14.08
COC(=O)c1cnc(/C=C/c2ccc(C(=O)O)cc2)s1,67.1,-19.53
CCc1nnc2n1CCN(C(=O)c1ccnc(N(C)C)c1)C2,-3.668,-0.05342
CN(C)c1ncc(-c2ccc(NC(=O)[C@@H]3CCCCN3)cc2)cn1,-6.606,-4.672
Cc1cccc(OCCSCCn2nc3ccccn3c2=O)c1,-17.54,-7.866 and 22.79
CCc1nnc(CS(=O)(=O)c2ccc(C)cc2)n1C,-0.9127,11.83
O=C(N[C@@H]1CN(Cc2c[nH]nc2-c2ccccc2)C[C@H]1O)c1cc[nH]n1,-21.14 and -5.652,-10.36
CS(=O)(=O)NCCCNCc1cc(F)ccc1Br,1.405,-1.09 and -1.779
[H][C@@]12CCN(Cc3ccc(C)o3)C[C@]1([H])[C@@H](CN(C)C)OC2,-8.861,3.366
Nc1nc2c(c(N3CCCC(OCc4ccccn4)C3)n1)CCNCC2 (stereo not drawn),-0.4733,-1.593 and 1.103
Cc1ccc(C)c(Oc2ccc(CNC(=O)C3CCC(=O)N3)cn2)c1 (stereo not drawn),2.92,3.243
CCc1cc(CN(C)C(=O)c2cnon2)on1,41.52 and 42.86,-6.576
CC(C)(C#N)c1ccccc1CN(CCO)Cc1ccsc1,0.6082,-3.326
CCn1cc(C(=O)Nc2cc(C(=O)OC)ccc2C(=O)OC)cn1,10.48,8.759 and -0.3563
O=C(NCCN1CCCCCC1)c1n[nH]c(=O)c2ccccc12,-24.73,-10.06
Cc1cnn(CC2CCCN2Cc2nnc(C(C)C)o2)c1 (stereo not drawn),-23.55,-1.839 and -18.3
[H][C@@]12CCCO[C@]1([H])[C@H](NS(C)(=O)=O)CN(Cc1ccccc1)C2,-26.13,14.54 and 6.873
OC(CNCCn1cccn1)COc1cccc(C(F)(F)F)c1 (stereo not drawn),30.71,46.85
Cc1ccc2c(c1)C(NC(=O)C1CCN(S(C)(=O)=O)CC1)CC(C)(C)O2 (stereo not drawn),-9.2,2.551
[H][C@@]12C[C@H](C(=O)N3CCCC3)[C@@]([H])(CN(C(=O)Nc3ccc(CC)cc3)C1)O2,-25.96,-33.57
O=C(NC1CC1)N1Cc2[nH]nc(COCC3CC3)c2C1,19.06 and -5.224,4.39 and -7.507
O=C(NCc1cn2c(n1)CN(Cc1nccs1)CC2)C1CCC1.O=C(O)C(F)(F)F,-5.096,-6.944 and 10.73
Cc1cnn(CC2CN(Cc3nccn3C)CCO2)c1 (stereo not drawn),-26.5,11.48
COCC(=O)NC(CC(C)C)c1nc2cccnc2n1C (stereo not drawn),-32.19,-9.328
CCc1nc(C2CCCN2Cc2nc(C(C)(C)C)no2)no1 (stereo not drawn),-20.67,3.534
CCOCCC(=O)N(C)Cc1noc(C(C)C)n1,-28.96,-8.637
Cc1cn[nH]c1C1CCCN1Cc1ccc(F)c(F)c1 (stereo not drawn),0.2604,26.31
CN(Cc1cccs1)S(=O)(=O)c1ccc(C(F)(F)F)nc1,35.37,52.46
COc1ccc(N(C)Cc2nc3c(cnn3C)c(=O)[nH]2)cc1OC,-13.13,8.558
CC(C)n1cc(CN2CCCN(C(=O)C3CCCN3C)CC2)cn1 (stereo not drawn),-4.015,-2.496 and 16.49
CC(NC(=O)c1ccc(F)cc1F)c1cnn(C)c1 (stereo not drawn),-9.373,-22.87
Cc1ccc(CN(C)C(=O)C(C)n2cncn2)o1 (stereo not drawn),1.646,-7.891
CC(C)(C)OC(=O)N1CCCc2ccc(NCc3cc[nH]c3)cc21,6.442,13.8 and 14.94
CCc1cccc(OCCCN(C)C(=O)CN2CCNC2=O)c1,3.458,15.75
CN(Cc1noc2c1CCCC2)C(=O)Cn1c(=O)cnc2ccccc21,-6.194,-32.5
CCC1CCCN(CC(=O)Nc2oc(C)c3c(C)n[nH]c(=O)c23)C1 (stereo not drawn),-0.01431,-8.133
CC(=O)N1CCC(n2nccc2-c2cnc(N(C)CCO)nc2)CC1,-24.38,10.11
Cc1cc(C)n(CC2CCCN2CCCc2nc3ccccc3o2)n1 (stereo not drawn),1.106,6.068 and 14.96
CCc1ncc2c(n1)CN(C(=O)CCCc1ccc(OC)cc1)C2,-12.76,6.15
Cc1csc(C2CCCCN2C(=O)CN(C)C(C)C)n1 (stereo not drawn),-42.02,-40.53
[H][C@@]12CS(=O)(=O)C[C@]1([H])N(C(=O)c1csc(C)n1)CCN2C(=O)C1CCC1,-9.146,-18.51
CN(Cc1nnc(C2CC2)o1)C(c1ccc(F)cc1)c1cccnc1 (stereo not drawn),2.055,5.151 and -0.569
CSCC(C)C(=O)NCc1c(C)nc2cc(=O)[nH]n2c1C (stereo not drawn),-6.832,18.07
[H][C@@]12CCN(Cc3cnn(C)c3)C[C@@]1([H])[C@H](C(=O)NCc1ccco1)CCO2,-3.714,21.38
CC(C)n1cnnc1CN(C)C(=O)Cn1ccc2ccccc2c1=O,-2.151,17.04 and -5.005
Cn1cc(C(=O)CC2CCCN2C(=O)c2cncc3ccccc23)cn1 (stereo not drawn),6.56,20.07
O=C(c1ccsc1)N1CCc2onc(CN3CCOCC3)c2C1,-14.69,-12.02 and -57.38
CCN1CC2(CC1=O)CN(C(=O)NC(C)C)CCN(S(C)(=O)=O)C2 (stereo not drawn),-18.55,-24.01
c1coc(-c2nnc(CN3CCCC(CN4CCCCCC4)C3)o2)c1 (stereo not drawn),3.294,-3.583 and 9.349
O=C(O)C(F)(F)F.O=C(O)C(F)(F)F.[H][C@@]12CCN(Cc3cccs3)C[C@]1([H])[C@@H](CN(C)Cc1ccco1)OC2,9.326,-10.72
CC(C)(C)c1ncc(C(=O)NCCNC(=O)Cc2ccccc2)s1,16.16,7.794
Cc1nc(C)n(CC2CCCN(CCCOc3ccccc3)C2)n1 (stereo not drawn),-5.973,17.57
CN(CCN1CCOC1=O)CC(=O)Nc1ccc(Cl)c(Cl)c1,-6.633,32.77
CS(=O)(=O)NCCN1CCOC2(CCc3ccccc32)C1 (stereo not drawn),2.586,-6.945
Cc1c(C)c2c(c(C)c1O)CC[C@](C)(C(=O)O)O2,4.289,8.396
CCc1cn[nH]c1C1CCCN(C(=O)c2ncoc2C(C)C)C1 (stereo not drawn),-6.502,2.747
N#Cc1c(N2CCCCC2)nsc1-c1cccnc1,9.963,42.1
COc1ccc(-c2cc(C3CCCCCN3S(=O)(=O)N(C)C)on2)cc1 (stereo not drawn),-35.02,-8.912
CN1CC2(CCN(c3ncnc4c3CCNC4)CC2)OC1=O,-5.734,7.175
Cc1cccc(OCCC(=O)N(C)CCC#N)c1C,-3.418,-1.648 and 1.987
CC1c2ncc(COc3cccnc3)n2CCN1C(=O)Cc1ccco1.O=C(O)C(F)(F)F (stereo not drawn),13.66,17.2

For reference, 7 entries once more:

compound	Mtb cholesterol medium	Mtb glucose medium
N#Cc1c(N2CCCCC2)nsc1-c1cccnc1	9.963	42.1
O=C(NCCN1CCCCCC1)c1n[nH]c(=O)c2ccccc12	-24.73	-10.06
[H][C@@]12CCN(Cc3ccc(C)o3)C[C@]1([H])[C@@H](CN(C)C)OC2	-8.861	3.366
CCc1nnc(CS(=O)(=O)c2ccc(C)cc2)n1C	-0.9127	11.83
Cn1cc(C(=O)N2CCOc3ccccc32)ccc1=O	-24.11 and 14.01	-26.05
CCOCCC(=O)N(C)Cc1noc(C(C)C)n1	-28.96	-8.637
c1coc(-c2nnc(CN3CCCC(CN4CCCCCC4)C3)o2)c1 (stereo not drawn)	3.294	-3.583 and 9.349